Data as given in US9073935B2, “Substituted benzylspiroindolin-2-one analogs as positive allosteric modulators of the muscarinic acetylcholine receptor M1” (VANDERBILT UNIVERSITY, priority 2011, dated 2015).

Chains of the proteins cited; added tags and fusions are not shown.
UniProt P11229, whole entry: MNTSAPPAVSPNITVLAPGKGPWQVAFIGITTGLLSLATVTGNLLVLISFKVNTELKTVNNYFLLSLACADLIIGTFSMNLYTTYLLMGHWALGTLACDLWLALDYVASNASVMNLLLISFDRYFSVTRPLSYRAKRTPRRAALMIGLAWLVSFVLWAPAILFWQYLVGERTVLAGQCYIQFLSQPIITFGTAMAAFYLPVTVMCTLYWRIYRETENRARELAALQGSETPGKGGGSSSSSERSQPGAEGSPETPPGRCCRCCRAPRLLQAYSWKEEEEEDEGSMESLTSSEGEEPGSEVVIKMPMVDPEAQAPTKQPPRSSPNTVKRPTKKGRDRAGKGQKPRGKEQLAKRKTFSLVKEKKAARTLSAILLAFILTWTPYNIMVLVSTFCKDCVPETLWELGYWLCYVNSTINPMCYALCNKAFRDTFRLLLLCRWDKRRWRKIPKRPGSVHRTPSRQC

Target: mAChR M1 (UniProt P11229)
Experiment: mAChR M1 cell-based functional assay (calcium mobilization, potentiation of EC20 acetylcholine response)
Details: for Emax: % ACh maximum at 30 μM; for EC50: CHO-K1 cells expressing mAChR M1, increase in EC20 acetylcholine response, >10 μM estimated where no plateau in the curve

Row | SMILES | Emax [%] | EC50 [nM]
1 | Cn1cc(-c2ccc(CN3C(=O)C4(CCN(C5CCCC5)C4)c4ccccc43)c(F)c2)cn1 (single isomer, unassigned) [B6] | 80 | 1800
2 | Cn1cc(-c2ccc(CN3C(=O)C4(CCN(C5CCCC5)C4)c4ccccc43)c(F)c2)cn1 (single isomer, unassigned) [B70] | 37 | > 10000

The structures given here were assigned with low confidence; some may be wrong.
